The record followed here is publication PMC8638147.

The chains behind the UniProt entries cited, without tags or fusion partners. Where a name states a change or a piece, a line headed by the entry shows the natural chain unless it says otherwise.
UniProt O43683: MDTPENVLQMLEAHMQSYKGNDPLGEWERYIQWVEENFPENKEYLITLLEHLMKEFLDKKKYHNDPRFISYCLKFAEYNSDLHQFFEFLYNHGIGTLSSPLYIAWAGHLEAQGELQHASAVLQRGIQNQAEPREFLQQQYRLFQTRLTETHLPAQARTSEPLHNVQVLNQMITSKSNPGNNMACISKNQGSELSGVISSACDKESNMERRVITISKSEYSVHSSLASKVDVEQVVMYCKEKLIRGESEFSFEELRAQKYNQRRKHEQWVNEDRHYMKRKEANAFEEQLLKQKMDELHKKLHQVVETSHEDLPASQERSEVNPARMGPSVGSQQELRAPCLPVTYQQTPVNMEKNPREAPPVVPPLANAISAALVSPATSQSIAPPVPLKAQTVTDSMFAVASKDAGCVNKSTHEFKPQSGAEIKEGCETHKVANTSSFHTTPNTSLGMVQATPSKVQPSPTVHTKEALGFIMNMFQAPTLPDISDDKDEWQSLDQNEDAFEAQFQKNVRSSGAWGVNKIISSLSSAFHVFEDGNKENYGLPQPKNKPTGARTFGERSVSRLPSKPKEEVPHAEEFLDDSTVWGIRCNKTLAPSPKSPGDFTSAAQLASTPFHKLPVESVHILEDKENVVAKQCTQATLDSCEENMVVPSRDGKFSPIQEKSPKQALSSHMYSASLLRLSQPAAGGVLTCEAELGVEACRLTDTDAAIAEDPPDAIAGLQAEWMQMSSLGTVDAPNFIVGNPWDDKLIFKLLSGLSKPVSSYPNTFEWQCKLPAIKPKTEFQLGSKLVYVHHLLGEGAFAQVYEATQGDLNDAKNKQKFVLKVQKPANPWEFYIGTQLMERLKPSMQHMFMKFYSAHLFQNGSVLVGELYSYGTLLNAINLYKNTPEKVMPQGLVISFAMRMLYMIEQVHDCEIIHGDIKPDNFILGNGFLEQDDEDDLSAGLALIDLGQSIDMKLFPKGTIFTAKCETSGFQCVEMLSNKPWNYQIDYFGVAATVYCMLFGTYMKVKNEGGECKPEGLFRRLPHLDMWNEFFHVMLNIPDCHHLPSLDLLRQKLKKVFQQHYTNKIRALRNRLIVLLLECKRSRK
UniProt Q09472: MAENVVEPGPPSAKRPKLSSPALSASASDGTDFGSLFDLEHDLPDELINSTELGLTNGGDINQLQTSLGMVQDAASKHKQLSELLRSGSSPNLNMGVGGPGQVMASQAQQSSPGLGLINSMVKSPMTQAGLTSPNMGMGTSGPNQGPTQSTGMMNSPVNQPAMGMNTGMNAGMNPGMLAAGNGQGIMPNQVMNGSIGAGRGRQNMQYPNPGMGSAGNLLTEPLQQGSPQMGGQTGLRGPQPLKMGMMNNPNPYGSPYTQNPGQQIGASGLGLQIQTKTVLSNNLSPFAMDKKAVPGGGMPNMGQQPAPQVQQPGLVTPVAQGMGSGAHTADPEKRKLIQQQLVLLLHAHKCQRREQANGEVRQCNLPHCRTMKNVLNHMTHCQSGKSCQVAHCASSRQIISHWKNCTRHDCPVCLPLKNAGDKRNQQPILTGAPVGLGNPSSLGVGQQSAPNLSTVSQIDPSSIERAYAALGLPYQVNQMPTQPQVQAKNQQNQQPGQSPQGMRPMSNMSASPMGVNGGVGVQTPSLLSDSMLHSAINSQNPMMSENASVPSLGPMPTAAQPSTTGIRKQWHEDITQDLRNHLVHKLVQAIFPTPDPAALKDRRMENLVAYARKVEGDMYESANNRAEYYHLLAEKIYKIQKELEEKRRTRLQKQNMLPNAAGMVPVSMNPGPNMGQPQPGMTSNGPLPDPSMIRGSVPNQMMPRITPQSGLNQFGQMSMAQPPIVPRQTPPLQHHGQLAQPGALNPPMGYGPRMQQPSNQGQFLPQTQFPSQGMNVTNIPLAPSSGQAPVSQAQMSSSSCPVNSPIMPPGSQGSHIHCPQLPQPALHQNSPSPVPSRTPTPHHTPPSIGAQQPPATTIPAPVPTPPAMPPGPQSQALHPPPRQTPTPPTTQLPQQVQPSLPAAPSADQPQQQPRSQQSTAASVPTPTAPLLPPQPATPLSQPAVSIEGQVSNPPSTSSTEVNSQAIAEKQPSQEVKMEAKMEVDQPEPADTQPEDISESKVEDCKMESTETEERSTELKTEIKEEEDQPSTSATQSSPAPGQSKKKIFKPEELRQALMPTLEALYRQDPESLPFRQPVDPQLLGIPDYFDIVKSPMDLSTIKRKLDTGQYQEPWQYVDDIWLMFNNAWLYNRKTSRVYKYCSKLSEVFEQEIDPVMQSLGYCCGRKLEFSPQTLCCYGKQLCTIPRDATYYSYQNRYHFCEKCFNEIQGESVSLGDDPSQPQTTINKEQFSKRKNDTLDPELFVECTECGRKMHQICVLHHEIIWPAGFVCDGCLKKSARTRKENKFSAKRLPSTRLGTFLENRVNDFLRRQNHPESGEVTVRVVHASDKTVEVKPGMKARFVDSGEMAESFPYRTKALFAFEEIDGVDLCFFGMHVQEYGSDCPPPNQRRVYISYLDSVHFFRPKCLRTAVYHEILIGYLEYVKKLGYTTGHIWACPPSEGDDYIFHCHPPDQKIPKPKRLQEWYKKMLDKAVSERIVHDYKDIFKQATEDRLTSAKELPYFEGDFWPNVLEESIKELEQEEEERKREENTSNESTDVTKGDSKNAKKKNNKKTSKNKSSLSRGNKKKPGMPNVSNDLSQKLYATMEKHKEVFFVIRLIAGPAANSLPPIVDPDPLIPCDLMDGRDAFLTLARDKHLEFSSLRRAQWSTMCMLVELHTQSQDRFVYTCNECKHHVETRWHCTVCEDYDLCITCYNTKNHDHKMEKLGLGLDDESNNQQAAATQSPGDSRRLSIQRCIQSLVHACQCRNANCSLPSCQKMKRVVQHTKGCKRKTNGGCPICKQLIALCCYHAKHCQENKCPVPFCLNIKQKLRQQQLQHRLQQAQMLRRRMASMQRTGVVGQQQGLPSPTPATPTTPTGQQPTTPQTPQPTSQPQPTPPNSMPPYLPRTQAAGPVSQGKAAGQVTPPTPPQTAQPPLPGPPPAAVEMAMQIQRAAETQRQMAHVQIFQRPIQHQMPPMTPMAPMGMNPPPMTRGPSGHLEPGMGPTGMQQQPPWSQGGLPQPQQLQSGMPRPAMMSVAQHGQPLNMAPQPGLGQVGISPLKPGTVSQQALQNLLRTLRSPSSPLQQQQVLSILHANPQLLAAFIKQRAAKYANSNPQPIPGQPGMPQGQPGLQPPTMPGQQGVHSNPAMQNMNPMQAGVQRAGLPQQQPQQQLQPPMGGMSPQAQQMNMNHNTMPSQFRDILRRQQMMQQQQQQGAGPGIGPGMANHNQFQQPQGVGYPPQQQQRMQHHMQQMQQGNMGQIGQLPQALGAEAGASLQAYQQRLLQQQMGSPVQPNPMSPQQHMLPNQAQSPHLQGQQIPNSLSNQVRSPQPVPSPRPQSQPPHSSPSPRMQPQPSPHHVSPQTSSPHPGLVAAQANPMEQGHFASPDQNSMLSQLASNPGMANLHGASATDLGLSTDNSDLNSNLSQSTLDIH
UniProt P40763: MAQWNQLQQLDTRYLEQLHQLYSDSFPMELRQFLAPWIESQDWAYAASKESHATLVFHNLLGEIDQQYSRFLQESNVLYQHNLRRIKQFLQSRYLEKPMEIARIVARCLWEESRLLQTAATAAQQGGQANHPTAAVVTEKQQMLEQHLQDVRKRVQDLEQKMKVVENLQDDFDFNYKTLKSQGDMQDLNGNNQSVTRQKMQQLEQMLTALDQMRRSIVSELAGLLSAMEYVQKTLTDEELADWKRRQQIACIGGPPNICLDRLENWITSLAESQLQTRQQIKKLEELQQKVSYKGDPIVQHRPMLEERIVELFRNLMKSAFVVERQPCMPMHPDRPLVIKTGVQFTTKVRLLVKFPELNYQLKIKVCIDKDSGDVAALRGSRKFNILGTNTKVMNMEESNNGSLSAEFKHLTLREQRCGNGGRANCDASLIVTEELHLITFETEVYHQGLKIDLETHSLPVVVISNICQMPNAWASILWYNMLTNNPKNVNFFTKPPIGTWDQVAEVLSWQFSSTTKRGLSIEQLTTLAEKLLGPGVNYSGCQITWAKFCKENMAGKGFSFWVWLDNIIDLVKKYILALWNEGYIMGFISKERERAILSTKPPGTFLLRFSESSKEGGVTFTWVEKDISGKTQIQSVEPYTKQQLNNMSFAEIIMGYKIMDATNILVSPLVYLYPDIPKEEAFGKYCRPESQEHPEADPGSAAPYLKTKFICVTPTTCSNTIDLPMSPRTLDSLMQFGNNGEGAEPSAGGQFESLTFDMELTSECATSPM

Results are given in words; binding and its absence hold for the method and conditions named. Binding seen in cells or lysates may run through a third protein. Some results given as binding are weak or reduced against the parent protein; the word gives no strength.

The target of experiment [1] is BUB1 (budding uninhibited by benzamidazole 1), mitotic serine/threonine kinase (human (endogenous in T24, EJ and 5637)) (UniProt O43683). Kind of experiment: co-IP; lysates of T24, EJ and 5637 cells grown serum-fed; lysis buffer 150 mM KCl, 75 mM HEPES pH 7.5, 1.5 mM EGTA, 1.5 mM MgCl2, 10% glycerol, 0.075% NP-40; protein A-Sepharose with antibody overnight at 4 C; Western blot. A general note: Immunoblotting shows a protein as a band on a membrane.

For experiment [2] the target is unchanged. Kind of experiment: co-IP; myc-tagged STAT3 full length and deletion mutants in 5637 cells (the text says pulldown, the legend co-IP); Western blot for BUB1.

Regarding “histone acetyltransferase p300 (from UniProt Q09472 1-2414) (enzyme)”, in experiment [1], the binding entry is “binds”.
With “myc-tagged C-terminal (amino acids 586-770) domain of STAT3 (from UniProt P40763 586-770) (domain or fragment)”, in experiment [2], the binding entry is “binds”.
Regarding STAT3 (from UniProt P40763 1-770), the binding result in experiment [1] was “binds”.
Consider “myc-tagged full-length STAT3 (from UniProt P40763 1-770)”, for which the binding entry in experiment [2] is “binds”.
